Values of other authors as cited in patent publication US20240315283A1, “ISOFUCOSTEROL A KEY NUTRIENT FOR PHYTOSTEROL EATING ANIMALS SUCH AS POLLEN EATING AND ALGAE-EATING AND PLANKTON EATING ORGANISMS” (APIX BIOSCIENCES, priority 2021, published 2024).

Tested on: Honeybee worker
Conditions: cited from earlier work

For `C/C=C(/CC[C@@H](C)[C@H]1CC[C@H]2[C@@H]3CC=C4C[C@@H](O)CC[C@]4(C)[C@H]3CC[C@]12C)C(C)C` [isofucosterol, Isofucosterol], the “Isofucosterol (% total)” value (Honeybee worker, percentage of total bee-relevant phytosterols) is listed as 28.73 % total, the “isofucosterol as share of dry weight” value (dry weight of a honeybee) is listed as 0.02-0.06% and the “isofucosterol share of total corporeal sterols” value (honeybees) is listed as 10-50%.
